Experimental findings from publication PMC6953771 are described below.

These are yes or no findings as the source states them, for the method shown. In cells and extracts the contact can be indirect. Some binding calls cover weakened binding; strength is not graded here.

The target in this assay is hnRNP-K (human (endogenous in LoVo and HT-29)) (UniProt P61978). Put plainly: co-IP; LoVo and HT-29 cell lysates (50 mmol/L Tris-HCl pH 7.5, 150 mmol/L NaCl, 0.2% Nonidet P-40, 5% glycerol, 1% Tween 20) incubated with hnRNP-K antibody (ab52600) at 4°C for 3 h, protein A/G Sepharose overnight, western blot; cells with shLINC01413, pGIPZ/LINC01413, pGIPZ/hnRNP-K or sh-hnRNP-K. On the technique in general: In western blotting, separated proteins are transferred to a membrane and probed.

For TAZ1 (from UniProt Q9GZV5 1-400), the binding result is given as “binds”.

For the substance “YAP1 (yes-associated protein 1) (from UniProt P46937 1-504)”, the binding entry is reported as “binds”.
